Experimental data as given in PubChem BioAssay AID1487 (National Center for Advancing Translational Sciences (NCATS), 2009).
This is one part of the list. Further columns of the screen follow, without active or inactive calls. Most of these compounds were active or inconclusive in the main read-out, so they are no random draw. Potencies come from curve fits of mixed quality, noted in brackets.

Assay: qHTS Assay for Modulators of Lamin A Splicing
Settings: HeLa LMNA splicing GFP/RFP minigene ratio, 48 h
In short: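 S3 HeLa stable clones carrying a lamin A-EGFP splicing minigene plus DsRed2 were seeded at 600 cells/well in Opti-MEM with 2% FBS, pin-dosed and incubated 48 h at 37°C. Acumen cytometry (488 nm) gave the GFP/RFP total-intensity ratio.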

[1] = measured here: GFP splicing reporter channel
[2] = measured here: RFP viability control channel

| Structure (SMILES) | AC50 [1] | AC50 [2] |
| --- | --- | --- |
| CC1(C)CC(=O)C2=C(C1)c1c(ccc3ccccc13)NC2c1ccc(Br)o1 (centres undefined) | 12.6 µM [rising, single point] | 12.6 µM [rising, single point] |
| O=S(=O)(NCCC1=CCCCC1)c1cccc2nsnc12 | 7.08 µM [rising, full curve, poor fit] | 10 µM [rising, partial curve, poor fit] |
| Cc1ccc(S(=O)(=O)N(C)C)cc1NC(=O)COC(=O)/C=C/c1cnc2ccccc2n1 | – | 0.316 µM [rising, single point] |
| CCN(CC)S(=O)(=O)c1ccc(NS(=O)(=O)c2ccc(C)c(C)c2)cc1 | – | 31.6 µM [rising, single point] |
| Cc1ccc(-c2csc(NC(=O)CSc3nc4ccccc4c(=O)n3CCCN(C)C)n2)cc1 | 35.5 µM [rising, single point] | 22.4 µM [rising, single point] |
| Cc1ccc(C(=O)Nc2ccccc2C(=O)NC(C(=O)O)C(C)C)cc1 (centres undefined) | – | 0.0708 µM [falling, full curve, poor fit] |
| COc1ccc2nc(/C(C#N)=C\c3ccc(Oc4ccc([N+](=O)[O-])cn4)cc3)[nH]c2c1 | 1.41 µM [rising, full curve, poor fit] | – |
| CCc1c(C)sc2c1CCN(C(=O)Nc1ccc(F)c(Cl)c1)C2c1ccc(F)cc1 (centres undefined) | – | 1.58 µM [rising, partial curve] |
| CCCCCSc1nnc(-c2cc(Br)ccc2N)c(=O)[nH]1 | 15.8 µM [rising, partial curve] | 17.8 µM [rising, single point] |
| COc1ccc(-c2cn3nc(SCC(=O)Nc4ccc(C)c(Cl)c4)ccc3n2)cc1 | 0.355 µM [rising, full curve, poor fit] | 0.1 µM [rising, partial curve] |
| COc1cc(SC)ccc1C(=O)NCCOc1ccc(C)c(C)c1 | – | 25.1 µM [rising, single point] |
| Cc1ccccc1C(=O)OCCN(C)Cc1ccccc1 | 0.447 µM [rising, full curve, poor fit] | – |
| Cc1ccc(NC(=O)c2ccccc2NS(=O)(=O)c2ccc(Cl)s2)cc1 | – | 20 µM [rising, single point] |
| COCCNC(=O)c1c[nH]c2ccc(OC)cc2c1=O | – | 12.6 µM [rising, single point] |
| CCn1c(SCC(=O)c2ccccc2)nc2ccccc2c1=O | 0.158 µM [falling, full curve, poor fit] | 1.58 µM [falling, partial curve, poor fit] |
| O=C(Cn1c(=O)sc2ccccc21)Nc1ccc(S(=O)(=O)N2CCCCC2)cc1 | – | 11.2 µM [rising, single point] |
| COC(=O)c1oc2ccc(Br)cc2c1-n1cccc1 | 35.5 µM [rising, single point] | – |

| Structure (SMILES) | AC50 [1] | AC50 [2] |
| --- | --- | --- |
| Cc1[nH]c2ccccc2c1C(=O)COC(=O)c1c(-c2ccccc2Cl)noc1C | – | 25.1 µM [rising, single point] |
| COc1ccc(N2CCN(C(=O)c3cccc(NC(=O)c4nsc5ccccc45)c3)CC2)cc1 | 8.91 µM [falling, partial curve, poor fit] | 7.08 µM [falling, full curve] |
| O=C(Nc1ccc2nc(SCC(=O)N3CCCc4ccccc43)sc2c1)c1ccccc1 | 5.01 µM [falling, partial curve] | – |
| CC(C)c1ccccc1NC(=O)COc1ccc2c(=O)c(Oc3ccc4ccccc4c3)coc2c1 | 8.91 µM [rising, partial curve] | 14.1 µM [rising, partial curve] |
| CCOc1ccc(S(=O)(=O)Nc2cc(OC)ccc2OC)cc1 | – | 5.62 µM [rising, partial curve, poor fit] |
| O=C(CN1CCN(c2cccc(Cl)c2)CC1)Nc1ccc([N+](=O)[O-])cc1C(=O)Nc1ccccc1F | – | 4.47 µM [rising, single point] |
| COc1ccccc1N1CCN(CCCCNS(=O)(=O)c2cccc3c(N(C)C)cccc23)CC1 | 12.6 µM [falling, partial curve, poor fit] | 11.2 µM [falling, partial curve, poor fit] |
| Cc1cc(CC(=O)O)n(C)c1C(=O)c1ccc(Cl)cc1 | 0.0794 µM [falling, full curve, poor fit] | 0.0891 µM [falling, full curve, poor fit] |
| NCCNC(=O)c1ncsc1-c1cccc(F)c1 | 0.00562 µM [falling, full curve, poor fit] | 0.00631 µM [falling, full curve, poor fit] |
| O=C(COCc1cc(-c2ccc3c(c2)OCO3)on1)N1CCN(c2ccccc2)CC1 | 28.2 µM [rising, single point] | 15.8 µM [rising, partial curve] |
| COc1cc(CC(=O)N2CCc3ccccc32)cc(OC)c1OC | 35.5 µM [rising, single point] | 35.5 µM [rising, single point] |
| CCC(CC)C(=O)Nc1nc2c(s1)CC(C)CC2 (centres undefined) | 1.26 µM [rising, full curve, poor fit] | – |
| N#C/C(=C/c1cn(-c2ccccc2)nc1-c1cccc(OCc2ccc(F)cc2)c1)C(=O)NCCCn1ccnc1 | 35.5 µM [falling, single point] | 35.5 µM [falling, single point] |
| COc1cccc(C2=CC(c3cccs3)n3nnnc3N2)c1 (centres undefined) | – | 4.47 µM [rising, full curve] |
| O=C(O)C1=CCCNC1 | – | 0.000794 µM [falling, full curve, poor fit] |
| Nc1nc(N)c2cc(Sc3ccc4ccccc4c3)ccc2n1 | 15.8 µM [falling, partial curve] | 35.5 µM [falling, partial curve, poor fit] |
| Cc1cc2ccccn2c1C(C[N+](=O)[O-])c1ccc(N(C)C)cc1 (centres undefined) | 0.00447 µM [rising, full curve, poor fit] | – |

Full records, looked up by structure.
Cc1cc2ccccn2c1C(C[N+](=O)[O-])c1ccc(N(C)C)cc1 (centres undefined) is listed with AC50 [1]: 0.00447 µM [rising, full curve, poor fit]
NCCNC(=O)c1ncsc1-c1cccc(F)c1 is listed with AC50 [1]: 0.00562 µM [falling, full curve, poor fit]; AC50 [2]: 0.00631 µM [falling, full curve, poor fit]
